Results are given in words; binding and its absence hold for the method and conditions named. In cells and extracts the contact can be indirect. A yes stands for co-enrichment or nearness to the bait. Other partners may have been found.
Biological target: T1, RalA^G23V ectopically expressed in liver (UniProt P11233)
T1 sequence: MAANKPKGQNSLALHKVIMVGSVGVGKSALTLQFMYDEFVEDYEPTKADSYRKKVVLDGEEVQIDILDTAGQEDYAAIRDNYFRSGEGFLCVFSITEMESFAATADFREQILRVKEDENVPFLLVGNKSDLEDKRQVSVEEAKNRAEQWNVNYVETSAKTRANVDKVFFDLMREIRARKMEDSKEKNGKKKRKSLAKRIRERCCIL
Assay: affinity purification with mass spectrometry; WT, G23V or S28N forms of RalA ectopically expressed in liver; proteomics search for interacting proteins

The chains behind the UniProt entries cited, without tags or fusion partners.
UniProt Q76MZ3: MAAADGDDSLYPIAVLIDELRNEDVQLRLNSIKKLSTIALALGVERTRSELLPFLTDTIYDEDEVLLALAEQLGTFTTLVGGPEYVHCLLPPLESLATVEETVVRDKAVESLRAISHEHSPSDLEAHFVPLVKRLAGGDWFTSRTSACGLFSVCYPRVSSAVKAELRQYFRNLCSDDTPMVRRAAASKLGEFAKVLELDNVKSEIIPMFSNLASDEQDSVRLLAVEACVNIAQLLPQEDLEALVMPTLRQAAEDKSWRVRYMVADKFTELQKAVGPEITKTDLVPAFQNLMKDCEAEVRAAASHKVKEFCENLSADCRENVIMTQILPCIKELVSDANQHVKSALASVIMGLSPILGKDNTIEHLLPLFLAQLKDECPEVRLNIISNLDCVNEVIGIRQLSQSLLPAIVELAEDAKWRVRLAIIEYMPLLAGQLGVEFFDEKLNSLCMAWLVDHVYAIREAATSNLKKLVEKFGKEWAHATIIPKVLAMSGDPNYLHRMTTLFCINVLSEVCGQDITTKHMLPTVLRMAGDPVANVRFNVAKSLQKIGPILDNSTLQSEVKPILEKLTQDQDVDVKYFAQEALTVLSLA

binding: binds
Substance: protein phosphatase 2A subunit Aα (PP2Aa), from liver (from UniProt Q76MZ3 1-589)

From PMC10896723
